The target of test [1] is T1, SusC^lev (B. thetaiotaomicron) (UniProt Q8A6W3).
T1 sequence: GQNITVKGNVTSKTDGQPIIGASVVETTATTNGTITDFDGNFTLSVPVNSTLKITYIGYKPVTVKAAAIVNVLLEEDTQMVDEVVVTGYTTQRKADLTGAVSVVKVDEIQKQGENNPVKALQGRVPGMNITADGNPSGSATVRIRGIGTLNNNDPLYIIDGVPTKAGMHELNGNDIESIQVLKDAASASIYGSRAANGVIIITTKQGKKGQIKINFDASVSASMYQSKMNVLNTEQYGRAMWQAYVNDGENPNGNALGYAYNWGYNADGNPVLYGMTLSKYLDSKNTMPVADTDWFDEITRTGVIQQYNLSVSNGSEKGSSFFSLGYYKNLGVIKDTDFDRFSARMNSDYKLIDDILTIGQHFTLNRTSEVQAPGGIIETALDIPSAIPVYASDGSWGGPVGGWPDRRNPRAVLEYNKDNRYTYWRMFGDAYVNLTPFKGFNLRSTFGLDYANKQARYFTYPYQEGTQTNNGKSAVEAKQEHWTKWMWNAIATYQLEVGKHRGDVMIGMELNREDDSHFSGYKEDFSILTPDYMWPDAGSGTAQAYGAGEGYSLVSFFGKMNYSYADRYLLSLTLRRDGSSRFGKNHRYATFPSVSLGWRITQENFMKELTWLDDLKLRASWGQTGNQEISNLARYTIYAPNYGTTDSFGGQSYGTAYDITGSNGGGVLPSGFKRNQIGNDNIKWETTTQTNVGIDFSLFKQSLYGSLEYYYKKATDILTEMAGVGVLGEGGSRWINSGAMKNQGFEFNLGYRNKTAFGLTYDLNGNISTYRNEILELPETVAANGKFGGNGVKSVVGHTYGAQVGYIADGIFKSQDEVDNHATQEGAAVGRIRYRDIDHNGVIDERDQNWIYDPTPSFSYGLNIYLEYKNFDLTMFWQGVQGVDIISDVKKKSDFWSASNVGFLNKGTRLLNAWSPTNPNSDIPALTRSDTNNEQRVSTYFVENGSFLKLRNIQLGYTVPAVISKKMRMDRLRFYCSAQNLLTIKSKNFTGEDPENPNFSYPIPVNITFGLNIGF
The experiment in a line: cryo-EM structure; apo (substrate-free) levan utilisome, 3 mg/ml in 10 mM HEPES pH 7.5, 100 mM NaCl, 0.03% DDM; ~6 Å classes, 3.5 Å focused C2 refinement without SusD.

For test [2], the target named is T1, SusC^lev (B. thetaiotaomicron). The experiment in a line: cryo-EM structure; levan utilisome with active GH^lev, incubated with 0.5 mM levan FOS DP~8-12; 10 mM HEPES pH 7.5, 100 mM NaCl, 0.03% DDM; 3.2 Å whole, 2.9 Å SusCD^lev core.
Test [3] shares this target. Kind of test: cryo-EM structure; minor subset (~10%) of the earlier dataset of LDAO-solubilised SusCD^lev; 3D class average with additional density; crystal structure of GH^lev (7ZNR) fitted as a rigid body.
For test [4] the target is unchanged.
Test [5] has the same target. The source holds these as a separate data set.

Like-named read-outs stand apart in the source and are kept apart here. These are yes or no findings as the source states them, for the method shown. Some entries that bind do so weakly or less than the wild type. For some of these results: Sequences can lack the tags named with a protein.

B1: GH^lev (Bt1760; GH32 endo-levanase) (enzyme, UniProt Q8A6W6 21-523)
chain: CSDETDPILTQKNWDGTATYFQSSDEHGFSMYYKPQVGFVGDPMPFYDPVAKDFKVMYLQDYRPNPEATYHPIFGVATKDGATYESLGELISCGGRDEQDAAIGTGGTIYNPADKLYYTFYTGNKFKPSSDQNAQVVMVATSPDFKTWTKNRTFYLKGDTYGYDKNDFRDPFLFQTEDGVYHMLIATRKNGKGHIAEFTSADLKEWESAGTFMTMMWDRFYECPDVFKMGDWWYLIYSEQASFMRKVQYFKGRTLEDLKATTANDAGIWPDNREGMLDSRAFYAGKTASDGTNRYIWGWCPTRAGNDNGNVGDVEPEWAGNLVAQRLIQHEDGTLTLGVPDAIDRKYTSAQEVKVMAKDGNMIESGKTYTLGEGASVIFNRLKVHNKISFTVKTASNTDRFGISFVRGTDSASWYSIHVNADEGKANFEKDGDDAKYLFDNKFNIPADNEYRVTIYSDQSVCVTYINDQLSFTNRIYQMQKNPWSLCCYKGEITVSDVQVSTY
modifications: acyl-cysteine as the first residue (lipoprotein)
As for B1, the binding result in test [1], in test [2] and in test [3] was “binds” in each case.

B2: SusC^lev (natural protein, B. thetaiotaomicron, UniProt Q8A6W3 26-1041, looked up)
chain: T1 sequence
notes: SusC^lev, the TonB-dependent outer membrane transporter (SusC) of the levan PUL of B. thetaiotaomicron; Two copies stand in the utilisome (SusC2D2 core); written here without a tag; also called levan SusC; source: endogenous, B. thetaiotaomicron grown on fructose; co-purified from detergent-solubilised membranes (LDAO sample; DDM sample: Ni2+ column, SEC)
As for B2, the binding result in test [2], in test [4] and in test [3] was “binds” in each case.

B3: SusD^lev (protein, UniProt Q8A6W4 19-570)
chain: CDDFLDRQVPQGIVTGDQIASPEYVDNLVISAYAIWATGDDINSSFSLWNYDVRSDDCYKGGSGTEDGGVFNALEISKGINTTDWNINDIWKRLYQCITRANTALQSLDQMDEKTYPLKNQRIAEMRFLRGHAHFMLKQLFKKIVIVNDENMEPDAYNELSNTTYTNDEQWQKIADDFQFAYDNLPEVQIEKGRPAQAAAAAYLAKTYLYKAYRQDGADNALTGINEEDLKQVVKYTDPLIMAKGGYGLETDYSMNFLPQYENGAESVWAIQYSINDGTYNGNLNWGMGLTTPQILGCCDFHKPSQNLVNAFKTDSQGKPLFSTYDNENYEVATDNVDPRLFHTVGMPGFPYKYNEGYIIQKNDDWSRSKGLYGYYVSLKENVDPDCDCLKKGSYWASSLNHIVIRYADVLLMRAEALIQLNDGRITDAISLINEVRSRAAGSTMLIFNYKEDYGVNFKVTPYDLKAYAQDEAMKMLKWERRVEFGMESSRFFDLVRWGEAKDVINAYYVTEASRCSIYKNAGFTENKNEYLPVPFEQISASNGNYTQNFGW
modifications: acyl-cysteine as the first residue (lipoprotein)
For the molecule B3, the binding result in test [1], in test [2] and in test [5] was “binds” throughout.

B4: SusD^lev with His6 tag (protein, UniProt Q8A6W4 19-570)
chain: B3 chain
modifications: acyl-cysteine as the first residue (lipoprotein)
In the case of B4, the binding result in test [3] was “binds”.
